These are yes or no findings as the source states them, for the method shown. Binding seen in cells or lysates may run through a third protein. Some results given as binding are weak or reduced against the parent protein; the word gives no strength.
Molecular target: T1, cyclin-dependent kinase inhibitor 1A/p21 (p21) (mouse (endogenous in LS8)) (UniProt P39689)
T1 sequence: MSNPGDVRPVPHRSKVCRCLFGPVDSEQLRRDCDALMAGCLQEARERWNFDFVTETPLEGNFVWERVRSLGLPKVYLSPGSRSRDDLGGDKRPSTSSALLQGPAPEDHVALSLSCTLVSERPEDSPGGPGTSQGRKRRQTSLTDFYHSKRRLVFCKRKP
Experiment: co-IP; Pierce Co-immunoprecipitation Kit; 1 mg LS8 lysate protein precipitated with mouse anti-p21, blotted with rabbit anti-MDM2; cells treated with Nutlin-3a (5 uM) for 2 h, then NaF (5 mM) for 6 h; mouse IgG as negative control

Sequences of proteins named here, by UniProt entry; tags and fusion partners are left off.
UniProt P23804: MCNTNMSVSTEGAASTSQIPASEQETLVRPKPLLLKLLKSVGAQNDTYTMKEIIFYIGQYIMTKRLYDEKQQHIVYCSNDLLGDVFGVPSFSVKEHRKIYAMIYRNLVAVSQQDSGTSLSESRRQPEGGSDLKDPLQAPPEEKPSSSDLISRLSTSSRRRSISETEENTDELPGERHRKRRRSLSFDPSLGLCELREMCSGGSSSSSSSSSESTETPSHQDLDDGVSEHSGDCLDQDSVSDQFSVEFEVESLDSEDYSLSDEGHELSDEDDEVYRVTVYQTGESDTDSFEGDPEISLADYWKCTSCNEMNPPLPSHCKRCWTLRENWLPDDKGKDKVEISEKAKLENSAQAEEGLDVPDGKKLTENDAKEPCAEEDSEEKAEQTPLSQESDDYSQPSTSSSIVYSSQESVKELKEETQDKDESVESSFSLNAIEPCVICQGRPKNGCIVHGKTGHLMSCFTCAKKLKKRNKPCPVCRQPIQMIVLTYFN

Substance: murine double minute 2 protein (MDM2) (from UniProt P23804 1-489)
- binding: binds

From paper PMC6562432
